Reference: PMC11265163

By UniProt entry, the sequences of proteins in these tests, tags left out. Where a name states a change or a piece, a line headed by the entry shows the natural chain unless it says otherwise.
UniProt Q9UKK3: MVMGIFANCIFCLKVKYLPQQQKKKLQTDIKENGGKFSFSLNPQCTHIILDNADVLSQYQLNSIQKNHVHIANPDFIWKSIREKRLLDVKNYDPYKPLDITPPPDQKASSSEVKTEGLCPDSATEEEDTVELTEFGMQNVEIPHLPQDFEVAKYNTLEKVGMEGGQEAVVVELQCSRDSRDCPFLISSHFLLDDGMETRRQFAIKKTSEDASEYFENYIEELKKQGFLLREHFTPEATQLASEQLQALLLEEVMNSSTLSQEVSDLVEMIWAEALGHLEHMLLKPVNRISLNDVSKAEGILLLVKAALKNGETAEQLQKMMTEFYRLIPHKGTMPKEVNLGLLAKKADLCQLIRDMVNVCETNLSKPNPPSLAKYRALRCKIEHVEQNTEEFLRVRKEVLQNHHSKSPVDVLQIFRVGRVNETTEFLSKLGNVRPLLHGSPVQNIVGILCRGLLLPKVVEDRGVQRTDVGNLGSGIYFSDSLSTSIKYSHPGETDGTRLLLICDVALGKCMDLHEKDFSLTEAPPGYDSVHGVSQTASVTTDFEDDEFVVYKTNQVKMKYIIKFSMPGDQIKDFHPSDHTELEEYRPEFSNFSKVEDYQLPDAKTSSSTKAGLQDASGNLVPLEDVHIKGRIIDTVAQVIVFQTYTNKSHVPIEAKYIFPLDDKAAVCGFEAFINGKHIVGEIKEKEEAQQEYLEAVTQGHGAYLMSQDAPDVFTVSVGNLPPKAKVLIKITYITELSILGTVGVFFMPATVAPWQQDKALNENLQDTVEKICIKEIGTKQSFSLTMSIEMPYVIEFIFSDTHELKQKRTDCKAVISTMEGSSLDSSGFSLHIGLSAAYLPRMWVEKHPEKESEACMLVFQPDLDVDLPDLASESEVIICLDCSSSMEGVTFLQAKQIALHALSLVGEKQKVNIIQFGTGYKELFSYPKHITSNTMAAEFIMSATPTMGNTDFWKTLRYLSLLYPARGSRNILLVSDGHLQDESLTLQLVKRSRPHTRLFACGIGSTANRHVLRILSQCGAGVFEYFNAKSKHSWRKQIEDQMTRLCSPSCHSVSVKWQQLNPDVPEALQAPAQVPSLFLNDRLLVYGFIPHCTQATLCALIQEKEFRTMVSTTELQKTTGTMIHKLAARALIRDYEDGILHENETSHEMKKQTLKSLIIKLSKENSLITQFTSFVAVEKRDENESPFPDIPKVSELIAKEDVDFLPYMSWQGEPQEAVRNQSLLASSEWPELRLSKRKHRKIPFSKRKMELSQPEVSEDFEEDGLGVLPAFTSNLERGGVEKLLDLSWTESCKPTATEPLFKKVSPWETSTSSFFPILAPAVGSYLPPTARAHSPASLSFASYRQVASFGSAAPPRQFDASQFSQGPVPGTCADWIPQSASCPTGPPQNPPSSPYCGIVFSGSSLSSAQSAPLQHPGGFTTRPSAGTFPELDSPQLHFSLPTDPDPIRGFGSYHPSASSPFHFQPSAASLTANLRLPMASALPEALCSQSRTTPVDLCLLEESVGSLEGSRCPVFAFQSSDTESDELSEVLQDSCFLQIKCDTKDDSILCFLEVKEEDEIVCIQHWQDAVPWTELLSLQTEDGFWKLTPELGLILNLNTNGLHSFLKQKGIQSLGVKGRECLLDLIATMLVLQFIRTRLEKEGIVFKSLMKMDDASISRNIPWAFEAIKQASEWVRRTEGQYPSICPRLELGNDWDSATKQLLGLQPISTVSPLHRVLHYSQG

Columns and labels:
Assay in all cases: co-IP; FLAG immunoprecipitation of exogenously introduced FLAG-tagged PARP4 fragments or domain-deletion mutants from HEK293T cells; endogenous hnRNPM detected
[1] = molecular target: PARP4 with deletion of the VIT domain (UniProt Q9UKK3)
[2] = molecular target: PARP4 with deletion of the VWFA domain (UniProt Q9UKK3)
[3] = molecular target: PARP4 with deletion of the MVP interaction domain (UniProt Q9UKK3)

binding [1]: binds
binding [2]: binds
binding [3]: binds
B1: heterogeneous ribonucleoprotein M (hnRNPM) (protein, UniProt P52272 1-730)
chain: MAAGVEAAAEVAATEIKMEEESGAPGVPSGNGAPGPKGEGERPAQNEKRKEKNIKRGGNRFEPYANPTKRYRAFITNIPFDVKWQSLKDLVKEKVGEVTYVELLMDAEGKSRGCAVVEFKMEESMKKAAEVLNKHSLSGRPLKVKEDPDGEHARRAMQKVMATTGGMGMGPGGPGMITIPPSILNNPNIPNEIIHALQAGRLGSTVFVANLDYKVGWKKLKEVFSMAGVVVRADILEDKDGKSRGIGTVTFEQSIEAVQAISMFNGQLLFDRPMHVKMDERALPKGDFFPPERPQQLPHGLGGIGMGLGPGGQPIDANHLNKGIGMGNIGPAGMGMEGIGFGINKMGGMEGPFGGGMENMGRFGSGMNMGRINEILSNALKRGEIIAKQGGGGGGGSVPGIERMGPGIDRLGGAGMERMGAGLGHGMDRVGSEIERMGLVMDRMGSVERMGSGIERMGPLGLDHMASSIERMGQTMERIGSGVERMGAGMGFGLERMAAPIDRVGQTIERMGSGVERMGPAIERMGLSMERMVPAGMGAGLERMGPVMDRMATGLERMGANNLERMGLERMGANSLERMGLERMGANSLERMGPAMGPALGAGIERMGLAMGGGGGASFDRAIEMERGNFGGSFAGSFGGAGGHAPGVARKACQIFVRNLPFDFTWKMLKDKFNECGHVLYADIKMENGKSKGCGVVKFESPEVAERACRMMNGMKLSGREIDVRIDRNA

Results are given in words; binding and its absence hold for the method and conditions named. Binding seen in cells or lysates may run through a third protein. Binding calls can cover weak binding; strength is not graded here.
